From paper PMC9415822, “Amphotericin B-PEG Conjugates of ZnO Nanoparticles: Enhancement Antifungal Activity with Minimal Toxicity” (Pharmaceutics, 2022) come the findings set out here.

In brackets after ≈: the same amount, converted by molar mass.

The test has as its system Candida albicans ATCC 64548. The experiment in a line: In vitro antifungal assay, broth microdilution (MIC/MFC), C. albicans. The test is classed as cell-based. To be noted: ATCC64548, RPMI 1640, 37 °C, 24 h. The protocol:
The broth microdilution method was used to assess the antifungal susceptibility of free AMB, and ZnO, ZnO-AMB, and ZnO-AMB-PEG nanoparticles against Candida albicans ATCC 64548 and Cryptococcus neoformans ATCC 90112 according to the Clinical Laboratory and Standards Institute Guidelines (CLSI, 2015). The nanoparticle solutions were serially diluted in sterile saline to obtain dilutions ranging from 5.0 to 0.00625 µg/mL. Aliquots (100 µL) from different dilutions of different preparations were transferred to the wells of 96-well microtiter plate. Fresh cultures of the tested strains were suspended in RPMI 1640 provided with L-glutamine and MOPS at pH 7.0 to prepare suspensions with a turbidity approximating that of 0.5 McFarland Standard. The fungal suspensions were diluted 1:100 with RPMI 1640 to obtain cell density of 1 × 10^5 CFU/mL. Of the prepared fungal suspensions, 100 µL was added to all dilutions of nanoparticle preparations. […] The minimum inhibitory concentration (MIC) was considered as the lowest concentration that inhibited the visible turbidity. The experiment was repeated six times and both positive control (inoculated fungi in broth without any addition) and negative control (sterile broth without fungi) were included in the experiment. The minimum fungicidal concentration (MFC) was determined according to [23].
For orientation: Dilution methods test growth across graded concentrations, often in twofold steps.

For orientation: MIC means the lowest concentration found to suppress growth. `C[C@@H]1[C@H](O)[C@@H](C)/C=C/C=C/C=C/C=C/C=C/C=C/C=C/[C@H](O[C@@H]2O[C@H](C)[C@@H](O)[C@H](N)[C@@H]2O)C[C@@H]2O[C@](O)(C[C@@H](O)C[C@@H](O)[C@H](O)CC[C@@H](O)C[C@@H](O)CC(=O)O[C@H]1C)C[C@H](O)[C@H]2C(=O)O` [AMB, Amphotericin B] registered an MIC of 0.1 µg/mL (≈ 0.108 µM).
